# According to patent US20240207308A1, “METHOD FOR CULTURING DENDRITIC CELLS” (NANOFAENTECH CO., LTD., priority 2021, published 2024):
# Some results were stated once for a whole list of compounds, not compound by compound.
# Test system: spleen dendritic cells and T cells
# Experiment: ELISA of IFN-γ and TNF-α after 4 days co-culture of spleen dendritic cells and OT-1 T cells
# Format: cell-based, mouse
# Details: dendritic cells cultured with the substance, co-culture with T cells 4 days
row,Sequence,increase in the secretion of interferon-gamma and TNF-α when stimulated with LPS [times]
1,PHSRNGGGSGGGSRGDGGGSLDV (Linker peptide LP3),≥ 4.5
2,PHSRNGGGSRGDGGGSLDV (Linker peptide LP2),≥ 4.5
3,PHSRNGSRGDGSLDV (Linker peptide LP1),≥ 4.5
